This passage reports binding results from doi:10.1101/2020.02.07.938712.

Experiment [1] has as its target T1, cYFP:ARR5^D87E (Arabidopsis thaliana) (UniProt Q9SB04).
T1 sequence: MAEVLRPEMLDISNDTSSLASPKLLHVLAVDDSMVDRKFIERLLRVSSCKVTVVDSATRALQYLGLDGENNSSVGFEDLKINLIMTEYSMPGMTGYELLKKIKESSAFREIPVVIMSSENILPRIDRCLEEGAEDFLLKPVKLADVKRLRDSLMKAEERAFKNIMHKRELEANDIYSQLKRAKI
The experiment in a line: split reporter.

The target in experiment [2] is T2, ARR7 (Arabidopsis thaliana) (UniProt Q9ZWS7).
T2 sequence: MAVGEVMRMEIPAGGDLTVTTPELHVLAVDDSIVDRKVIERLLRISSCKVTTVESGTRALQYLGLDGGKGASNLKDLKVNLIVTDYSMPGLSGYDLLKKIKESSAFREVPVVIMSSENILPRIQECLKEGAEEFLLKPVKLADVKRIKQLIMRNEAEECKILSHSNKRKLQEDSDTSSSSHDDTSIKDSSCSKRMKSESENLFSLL
Briefly: two-hybrid.

Experiment [3] has as its target T3, ARR5^D87E (Arabidopsis thaliana) (UniProt Q9SB04).
T3 sequence: T1 sequence
The experiment in a line: two-hybrid.

Experiment [4] concerns the target T4, ARR7 D→A version (Arabidopsis thaliana) (UniProt Q9ZWS7).
T4 sequence: T2 sequence with D85A
Briefly: two-hybrid.

Experiment [5] addresses T5, ARR5^D87A (Arabidopsis thaliana) (UniProt Q9SB04).
T5 sequence: T1 sequence with E87A
The experiment in a line: two-hybrid.

Experiment [6] addresses T6, ARR16^D93E (Arabidopsis thaliana) (UniProt Q9SHC2).
T6 sequence: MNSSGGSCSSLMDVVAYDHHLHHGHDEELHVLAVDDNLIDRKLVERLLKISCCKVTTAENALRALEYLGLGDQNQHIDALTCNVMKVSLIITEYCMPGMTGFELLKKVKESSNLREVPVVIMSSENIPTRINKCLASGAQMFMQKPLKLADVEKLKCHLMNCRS
Briefly: two-hybrid.

Experiment [7] has as its target T7, ARR7^D85E (Arabidopsis thaliana) (UniProt Q9ZWS7).
T7 sequence: T2 sequence with D85E
Briefly: two-hybrid.

For experiment [8], the target named is T8, ARR5 (Arabidopsis thaliana) (UniProt Q9SB04).
T8 sequence: T1 sequence with E87D
The experiment in a line: two-hybrid.

Substitutions are numbered along the chain they refer to. No constants are given. Whether binding was seen depends on the method and setting. For some of these results: A result given as binding can be weak or reduced; the word gives no strength. For some of these results: Binding seen in cells or lysates may run through a third protein. For some of these results: Tags and fused reporters may be left off the sequences shown.

For nYFP:EXO70D3 (Arabidopsis thaliana), in experiment [1], the binding result is “binds”.
On to EXO70D3 (Arabidopsis thaliana), for which the binding result in experiment [2] is “no binding”; in experiment [3] it was “binds”; in experiment [4], “no binding”; in experiment [5], “no binding”; in experiment [6] it was “no binding”; in experiment [7] it was “no binding”.
Consider EXO70D1 (from UniProt Q9C9E5), for which the binding entry in experiment [8] is listed as “binds”; in experiment [3], “binds”; in experiment [5], “binds”; in experiment [6], “binds weakly”; in experiment [7], “binds”.
For EXO70D2 (Arabidopsis thaliana), the binding entry was “no binding” in experiment [8]; “no binding” in experiment [2]; “binds” in experiment [3]; “no binding” in experiment [4]; “no binding” in experiment [5]; “no binding” in experiment [6]. Besides, in experiment [7], the binding entry is given as “no binding”.
